In all, about 320,000 compounds went through this assay and about 22,000 (6.9%) were called active. This list was built around the results that the source calls inconclusive (neither active nor inactive); the mix of calls is not that of the screen. The call rests on the fitted dose curve; in most records, active means well fitted inhibition curve with a large enough effect; inconclusive means small, poorly fitted or top-dose-only effect, or another doubt; inactive means no such curve, though single readings can be large or run the other way. A potency beside an inconclusive call is a rough fit, not a confirmed value.
Test: Primary qHTS for delayed death inhibitors of the malarial parasite plastid, 96 hour incubation
Conditions: P. falciparum luciferase reporter growth; series mostly up to 28.7 µM
In short: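 Two parasite generations (96 h, 37 C, 5% CO2) of compound exposure in infected erythrocytes (0.05% parasitemia, 2% hematocrit). Luciferase-reporter P. falciparum; decreased luminescence indicates inhibited growth, aimed at apicoplast-acting delayed death.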
For `Cn1cnnc1SC1c2cccc3cccc(c23)C1NS(=O)(=O)c1ccc(Cl)cc1` (stereo not drawn), the Potency was inconclusive: 18.5 µM [inhibitor, partial curve, poor fit]. For `CC(CCN1C(Nc2ccccc2)=NC[C@@H]1C)c1ccccc1` (stereo partly drawn), the Potency was “inactive”. In the case of `Cc1ccc(S(=O)(=O)Nc2c(C)nn(C)c2C)cc1C`, the Potency is reported as “inactive”. For `CCOC(=O)/C(=N\Nc1ncnc2ccccc12)c1ccc(OC)cc1`, the Potency was “inactive”. With `COc1ccc2[nH]c(CN3CCC(n4nccc4NC(=O)C4CC4)CC3)c(C)c2c1` the Potency was inconclusive: 14.7 µM [inhibitor, partial curve, poor fit]. With `Cn1ccc2c([N+](=O)[O-])cccc2c1=O` the Potency was “inactive”. In the case of `Cc1ccc(C(=S)N2CCN(Cc3ccccc3)CC2)cc1`, the Potency is reported as inconclusive: 10.4 µM [inhibitor, single point]. In the case of `CCCc1cc(C(=O)NCc2ccco2)no1`, the Potency is reported as active: 13.1 µM. With `CCOC(=O)c1c(NC(NC(C)=O)C(Cl)(Cl)Cl)sc2c1CCCC2` (stereo not drawn) the Potency was inconclusive: 11.7 µM [inhibitor, single point]. In the case of `Cc1ccc(CN2CCNC(=O)C2CC(=O)NCc2cc(C)n(C)n2)cc1` (stereo not drawn), the Potency is reported as inconclusive: 8.28 µM [inhibitor, partial curve]. With `CCC(Cc1ccccc1)NC(=O)CCn1cccc1` (stereo not drawn) the Potency was active: 5.86 µM. With `CC1(c2ccc3ccccc3c2)NC(=O)NC1=O` (stereo not drawn) the Potency was “inactive”. In the case of `COC(=O)[C@@]12CCCCN1[C@H](c1ccc(-c3ccc(F)cc3)c(OC)c1)[C@@H]1C(=O)N(C)C(=O)[C@@H]12`, the Potency is reported as active: 11.7 µM. For `CCOc1cc(CNCc2ccc(C(=O)O)cc2)ccc1OC`, the Potency was “inactive”. In the case of `Cc1cnc(NC(=O)CSc2ncn(-c3ccccc3)n2)s1`, the Potency is reported as inconclusive: 0.928 µM [inhibitor, partial curve, poor fit]. For `Cc1ccc(S(=O)(=O)N/N=C/c2ccc(C(=O)O)cc2)cc1`, the Potency was active: 11.7 µM. In the case of `Cc1ccc(C(c2c(C)[nH][nH]c2=O)c2c(C)[nH][nH]c2=O)cc1[N+](=O)[O-]`, the Potency is reported as inconclusive: 9.28 µM [inhibitor, partial curve, poor fit]. For `CC(C)CCNC(=O)CN(Cc1ccccc1)C(=O)CCC(=O)Nc1ccccn1`, the Potency was “inactive”. With `COc1cc(/C=N/NS(=O)(=O)c2ccc(C)cc2)ccc1OCc1ccc(C(=O)O)cc1` the Potency was “inactive”. In the case of `CCOc1ccc(N(CC(=O)N/N=C/c2cc([N+](=O)[O-])ccc2Cl)S(C)(=O)=O)cc1`, the Potency is reported as inconclusive: 2.62 µM [inhibitor, partial curve, poor fit]. For `CCN(CC)CCNC(=O)c1cccc(NC(=O)C(=O)c2cc(Br)ccc2NC(C)=O)c1`, the Potency was inconclusive: 9.28 µM [inhibitor, single point]. In the case of `Cc1nc(NC(=O)c2ccccc2[N+](=O)[O-])sc1C(=O)N(C)C`, the Potency is reported as “inactive”. For `COc1ccc(CC(=O)Nc2nc3ccccc3s2)cc1S(=O)(=O)N1CCOCC1`, the Potency was inconclusive: 10.4 µM [inhibitor, partial curve]. For `CC(CNC(=S)Nc1cc(F)cc(F)c1)CSc1ccc(Cl)cc1` (stereo not drawn), the Potency was inconclusive: 6.57 µM [inhibitor, partial curve, poor fit]. In the case of `Cc1ccccc1CN(C)Cc1cc(=O)oc2c(C)c(C)ccc12`, the Potency is reported as inconclusive: 10.4 µM [inhibitor, single point]. For `O=C(NCCC(=O)N(CCc1ccccc1)Cc1ccccc1)c1ccc([N+](=O)[O-])cc1`, the Potency was inconclusive: 10.4 µM [inhibitor, single point]. For `CC1CN(c2ccc(NS(=O)(=O)c3ccccc3)cc2C(=O)O)CC(C)O1` (stereo not drawn), the Potency was “inactive”. For `CCn1c(C(=O)N2CCC(C(=O)N3CCN(c4ccccn4)CC3)CC2)cc2sccc21`, the Potency was inconclusive: 4.65 µM [inhibitor, partial curve]. In the case of `CCCC(=O)N/C(N)=N/c1nc(C)c2ccccc2n1`, the Potency is reported as active: 1.85 µM. In the case of `O=C(COC(=O)c1ccccc1F)Nc1ccc2c(c1)OCCO2`, the Potency is reported as “inactive”. With `CC(C)OCCCn1c(=S)[nH]c2ncccc2c1=O` the Potency was “inactive”. For `COCCn1c(SCC(=O)N(C)c2c(N)n(Cc3ccccc3)c(=O)[nH]c2=O)nnc1-c1cccc(C)c1`, the Potency was “inactive”. For `CCCCc1oc2c(c(=O)c1C)C(=O)CC(c1ccccc1)C2` (stereo not drawn), the Potency was inconclusive: 18.5 µM [inhibitor, single point]. In the case of `COc1ccc(C(=O)CN2CCN(c3ccc(Cl)cc3)CC2)cc1OC`, the Potency is reported as “inactive”. With `O=C1NC(=O)c2cc(Oc3ccc([N+](=O)[O-])cc3)ccc21` the Potency was “inactive”. With `O=C(c1ccccc1Cc1ccccc1)N1CCN(S(=O)(=O)c2ccccc2[N+](=O)[O-])CC1` the Potency was active: 13.1 µM. For `COc1ccccc1C(C)NC(=O)C1CCN(S(=O)(=O)c2cccs2)CC1` (stereo not drawn), the Potency was inconclusive: 18.5 µM [inhibitor, single point]. With `COc1ccccc1Nc1nc(N)nc(CN2CCN(Cc3ccccc3)CC2)n1` the Potency was inconclusive: 13.1 µM [inhibitor, single point]. For `CC(=C/c1ccc(C(C)C)cc1)/C=N/NC(=O)Cn1nc(C)cc1C`, the Potency was “inactive”. With `Cc1nnc(N/N=C/c2ccc(Br)cc2)n1N` the Potency was active: 14.7 µM. For `C#CCOCCOCCOCCNc1nc(N2CCN(C(=O)Cn3cc(CC(C)O)nn3)CC2)nc(N2CCN(C(=O)[C@H](CCCCN)n3cc(CCC(=O)O)nn3)CC2)n1` (stereo partly drawn), the Potency was “inactive”. In the case of `O=[N+]([O-])c1ccc(/C=N/Nc2cc(Cl)nc(-c3ccccc3)n2)cc1`, the Potency is reported as inconclusive: 0.828 µM [inhibitor, full curve, poor fit]. For `O=C1N/C(=N\S(=O)(=O)Cc2ccccc2)S/C1=C/c1cccc([N+](=O)[O-])c1`, the Potency was inconclusive: 10.4 µM [inhibitor, single point]. With `COC(=O)C1=C(c2ccccc2OCc2ccccc2)C[C@@H]2CC[C@H]1N2C(=O)NC1CCN(Cc2ccccc2)CC1` the Potency was inconclusive: 9.28 µM [inhibitor, partial curve]. For `COc1nccnc1NS(=O)(=O)c1ccc(NC(=O)c2cccc(C)c2)cc1`, the Potency was inconclusive: 7.38 µM [inhibitor, partial curve]. For `CS/C(N)=N/N=C/c1c(O)ccc2ccccc12`, the Potency was “inactive”. For `O=C(CCl)NC(Cc1ccccc1)c1ccccc1` (stereo not drawn), the Potency was active: 10.4 µM. For `O=C(NCCCCc1ccccc1)C1CCCC1`, the Potency was inconclusive: 18.5 µM [inhibitor, single point]. In the case of `CCCCCN(C(=O)CCC(=O)OCc1ccccc1C(F)(F)F)c1c(N)n(CCCC)c(=O)[nH]c1=O`, the Potency is reported as inconclusive: 6.57 µM [inhibitor, partial curve]. In the case of `COc1ccc(-n2c(C)csc2=S)cc1`, the Potency is reported as inconclusive: 13.1 µM [inhibitor, single point]. For `CCCc1ccc(C(=O)O)cc1`, the Potency was inconclusive: 2.69 µM [inhibitor, single point]. With `CSc1nnc2c(n1)OC(C)=Nc1ccccc1-2` the Potency was inconclusive: 4.15 µM [inhibitor, partial curve, poor fit]. With `COC(=O)N/N=C/c1ccc([N+](=O)[O-])o1` the Potency was active: 11.7 µM. With `COc1ccc(Cc2nn3c(-c4ccccc4OC)nnc3s2)cc1` the Potency was inconclusive: 16.5 µM [inhibitor, partial curve, poor fit]. In the case of `Cc1ccc2nc(-c3ccc4c(c3)OCCO4)cc(C(=O)O)c2c1`, the Potency is reported as inconclusive: 5.22 µM [inhibitor, partial curve, poor fit]. With `Cc1c(C(=O)N2CCOCC2)sc(NC(=O)c2ccccc2F)c1C#N` the Potency was inconclusive: 10.4 µM [inhibitor, partial curve]. For `O=C(COC(=O)/C=C/c1ccc(C(F)(F)F)cc1)NCC1CCCO1` (stereo not drawn), the Potency was “inactive”. In the case of `COc1ccc(CCNC(=O)c2sc(=S)n(C)c2N)cc1`, the Potency is reported as active: 1.85 µM. For `Cc1ccc(NC(=O)/C=N/OCC(=O)NCc2ccccc2Cl)cc1`, the Potency was “inactive”. In the case of `COc1cccc(C2CC3(CC(C)(C)NC(=S)N3)Oc3cc(O)ccc32)c1` (stereo not drawn), the Potency is reported as “inactive”. In the case of `CC(=O)c1ccc(OC(=O)COc2ccccc2)cc1`, the Potency is reported as inconclusive: 1.85 µM [inhibitor, partial curve, poor fit]. In the case of `c1ccc(OCCOc2ncnc3ccccc23)cc1`, the Potency is reported as inconclusive: 9.28 µM [inhibitor, partial curve]. With `CC(=O)c1c(N2CCN(Cc3ccccc3)CC2)[nH]c(-c2ccccc2)nc1=S` the Potency was “inactive”. In the case of `Cn1nccc1/C=N\NC(=O)c1ccc(Cl)cc1`, the Potency is reported as “inactive”. In the case of `COc1ccc(N(C(=O)CNC(=O)c2cccs2)C(C(=O)NCC2CCCO2)c2ccc(OC)c(OC)c2)cc1` (stereo not drawn), the Potency is reported as inconclusive: 14.7 µM [inhibitor, single point]. For `CCOC(=O)c1sc2nc(C)c3c(c2c1N)CC(C)(C)OC3`, the Potency was inconclusive: 10.4 µM [inhibitor, partial curve, poor fit]. With `CCCCNc1c(-c2ccc(SC3CCCCC3)c(OC)c2)nc2ccc(Cl)cn12` the Potency was active: 2.08 µM. In the case of `CCOc1ccc(OCc2ccc(C(=O)N/N=C(\C)c3ccccn3)cc2)cc1`, the Potency is reported as active: 0.37 µM. For `COc1cccc(C2CC(c3cccs3)=NN2C(=O)CSC2=NN3CCCC(=O)N=C3S2)c1OC` (stereo not drawn), the Potency was active: 0.465 µM. With `COc1cc(/C=N/NC(=O)NC23CC4CC(CC(C4)C2)C3)ccc1OCC(N)=O` the Potency was active: 5.86 µM. For `Cc1nc(N2CCc3ccccc3C2)[nH]c(=O)c1Cc1ccccc1`, the Potency was inconclusive: 9.28 µM [inhibitor, partial curve, poor fit]. For `CCCc1nc(SCc2cccnc2)c2c(=O)n(C)c(=O)n(C)c2n1`, the Potency was inconclusive: 16.5 µM [inhibitor, partial curve, poor fit]. With `CCSc1nnc(NC(=O)c2cc(-c3ccc(C)c(C)c3O)n[nH]2)s1` the Potency was inconclusive: 1.04 µM [inhibitor, partial curve, poor fit].
Potency means the concentration at half of the fitted maximal effect.
